Data reported in the supplement of paper PMC10849652.
The list shows a part of the results.

By UniProt entry, the sequences of proteins in these tests, tags left out. Where a name states a change or a piece, a line headed by the entry shows the natural chain unless it says otherwise.
UniProt O60244: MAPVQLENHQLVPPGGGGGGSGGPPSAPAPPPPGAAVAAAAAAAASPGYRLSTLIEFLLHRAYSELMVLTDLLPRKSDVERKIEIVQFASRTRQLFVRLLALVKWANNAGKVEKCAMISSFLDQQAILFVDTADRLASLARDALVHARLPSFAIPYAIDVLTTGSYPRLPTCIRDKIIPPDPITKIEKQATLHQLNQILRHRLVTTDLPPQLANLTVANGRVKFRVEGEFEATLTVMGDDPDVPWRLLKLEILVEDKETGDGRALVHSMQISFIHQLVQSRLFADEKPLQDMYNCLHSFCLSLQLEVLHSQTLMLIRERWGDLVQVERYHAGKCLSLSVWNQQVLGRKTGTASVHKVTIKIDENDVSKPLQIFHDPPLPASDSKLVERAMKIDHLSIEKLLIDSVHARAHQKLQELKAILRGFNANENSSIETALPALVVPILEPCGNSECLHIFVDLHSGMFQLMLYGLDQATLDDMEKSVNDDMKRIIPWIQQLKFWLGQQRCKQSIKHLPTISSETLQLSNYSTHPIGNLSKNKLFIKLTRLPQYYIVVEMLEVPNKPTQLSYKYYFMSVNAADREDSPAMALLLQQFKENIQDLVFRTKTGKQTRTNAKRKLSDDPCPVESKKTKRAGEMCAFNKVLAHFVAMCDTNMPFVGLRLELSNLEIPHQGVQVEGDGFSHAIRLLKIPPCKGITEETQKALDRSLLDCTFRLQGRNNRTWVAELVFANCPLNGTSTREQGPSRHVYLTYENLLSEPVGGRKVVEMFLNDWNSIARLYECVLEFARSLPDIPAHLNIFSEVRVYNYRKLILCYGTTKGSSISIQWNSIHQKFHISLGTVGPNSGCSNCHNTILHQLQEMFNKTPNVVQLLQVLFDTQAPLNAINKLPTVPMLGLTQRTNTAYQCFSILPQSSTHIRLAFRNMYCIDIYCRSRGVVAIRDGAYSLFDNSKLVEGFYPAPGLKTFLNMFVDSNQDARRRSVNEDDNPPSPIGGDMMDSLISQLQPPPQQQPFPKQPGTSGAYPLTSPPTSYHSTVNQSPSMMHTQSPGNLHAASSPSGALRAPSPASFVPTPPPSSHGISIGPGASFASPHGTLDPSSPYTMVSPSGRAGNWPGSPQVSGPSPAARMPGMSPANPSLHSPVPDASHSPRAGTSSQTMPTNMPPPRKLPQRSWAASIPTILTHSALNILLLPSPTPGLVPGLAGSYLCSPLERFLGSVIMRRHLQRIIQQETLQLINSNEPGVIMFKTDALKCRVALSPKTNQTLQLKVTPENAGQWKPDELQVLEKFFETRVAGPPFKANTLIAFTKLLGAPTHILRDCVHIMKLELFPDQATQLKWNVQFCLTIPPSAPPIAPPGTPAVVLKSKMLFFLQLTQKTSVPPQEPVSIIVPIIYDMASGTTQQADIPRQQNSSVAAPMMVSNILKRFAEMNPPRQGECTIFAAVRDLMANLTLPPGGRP
UniProt P43121, whole entry, looked up: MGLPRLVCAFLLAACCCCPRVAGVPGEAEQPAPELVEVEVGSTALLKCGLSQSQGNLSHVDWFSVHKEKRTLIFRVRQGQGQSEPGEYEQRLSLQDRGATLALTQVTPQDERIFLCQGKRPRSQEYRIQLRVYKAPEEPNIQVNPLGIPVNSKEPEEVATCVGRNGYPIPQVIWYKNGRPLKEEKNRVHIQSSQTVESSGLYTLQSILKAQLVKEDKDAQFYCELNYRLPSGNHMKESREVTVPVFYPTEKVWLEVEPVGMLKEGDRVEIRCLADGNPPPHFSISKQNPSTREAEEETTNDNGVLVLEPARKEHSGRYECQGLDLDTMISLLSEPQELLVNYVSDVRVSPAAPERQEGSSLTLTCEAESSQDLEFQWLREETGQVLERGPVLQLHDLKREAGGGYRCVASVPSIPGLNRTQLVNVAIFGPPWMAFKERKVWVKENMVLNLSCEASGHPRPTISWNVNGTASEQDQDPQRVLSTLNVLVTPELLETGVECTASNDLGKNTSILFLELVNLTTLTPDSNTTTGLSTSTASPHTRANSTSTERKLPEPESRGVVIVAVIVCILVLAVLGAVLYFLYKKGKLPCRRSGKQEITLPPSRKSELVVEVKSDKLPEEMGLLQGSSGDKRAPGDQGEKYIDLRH
UniProt P31153, whole entry, looked up: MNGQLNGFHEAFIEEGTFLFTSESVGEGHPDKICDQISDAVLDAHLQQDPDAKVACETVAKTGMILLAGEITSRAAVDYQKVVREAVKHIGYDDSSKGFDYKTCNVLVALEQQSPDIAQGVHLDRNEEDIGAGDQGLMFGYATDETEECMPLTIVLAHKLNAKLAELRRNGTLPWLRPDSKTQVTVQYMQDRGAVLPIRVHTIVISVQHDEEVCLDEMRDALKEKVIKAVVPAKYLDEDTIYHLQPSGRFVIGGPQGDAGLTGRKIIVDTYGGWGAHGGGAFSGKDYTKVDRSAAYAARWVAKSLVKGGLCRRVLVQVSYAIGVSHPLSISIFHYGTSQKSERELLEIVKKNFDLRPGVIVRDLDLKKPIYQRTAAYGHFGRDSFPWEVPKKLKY
UniProt Q5SR56: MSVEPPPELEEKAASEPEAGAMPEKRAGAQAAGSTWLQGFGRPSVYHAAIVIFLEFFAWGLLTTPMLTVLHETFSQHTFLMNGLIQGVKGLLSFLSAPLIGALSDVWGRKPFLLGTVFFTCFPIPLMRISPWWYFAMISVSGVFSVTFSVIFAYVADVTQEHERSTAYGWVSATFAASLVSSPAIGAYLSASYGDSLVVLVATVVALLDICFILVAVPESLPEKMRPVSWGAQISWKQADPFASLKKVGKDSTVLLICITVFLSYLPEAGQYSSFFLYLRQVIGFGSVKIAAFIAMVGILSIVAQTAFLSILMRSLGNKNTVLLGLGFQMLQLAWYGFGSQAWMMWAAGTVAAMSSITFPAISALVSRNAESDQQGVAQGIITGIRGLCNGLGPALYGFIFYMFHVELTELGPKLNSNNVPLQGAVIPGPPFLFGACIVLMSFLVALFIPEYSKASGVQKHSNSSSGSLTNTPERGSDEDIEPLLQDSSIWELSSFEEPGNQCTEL
UniProt Q16626: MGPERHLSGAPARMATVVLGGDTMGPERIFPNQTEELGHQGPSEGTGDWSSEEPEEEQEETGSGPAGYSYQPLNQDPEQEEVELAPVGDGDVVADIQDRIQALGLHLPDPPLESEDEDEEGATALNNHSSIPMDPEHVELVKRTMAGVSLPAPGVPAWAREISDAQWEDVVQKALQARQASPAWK
UniProt Q96RN5: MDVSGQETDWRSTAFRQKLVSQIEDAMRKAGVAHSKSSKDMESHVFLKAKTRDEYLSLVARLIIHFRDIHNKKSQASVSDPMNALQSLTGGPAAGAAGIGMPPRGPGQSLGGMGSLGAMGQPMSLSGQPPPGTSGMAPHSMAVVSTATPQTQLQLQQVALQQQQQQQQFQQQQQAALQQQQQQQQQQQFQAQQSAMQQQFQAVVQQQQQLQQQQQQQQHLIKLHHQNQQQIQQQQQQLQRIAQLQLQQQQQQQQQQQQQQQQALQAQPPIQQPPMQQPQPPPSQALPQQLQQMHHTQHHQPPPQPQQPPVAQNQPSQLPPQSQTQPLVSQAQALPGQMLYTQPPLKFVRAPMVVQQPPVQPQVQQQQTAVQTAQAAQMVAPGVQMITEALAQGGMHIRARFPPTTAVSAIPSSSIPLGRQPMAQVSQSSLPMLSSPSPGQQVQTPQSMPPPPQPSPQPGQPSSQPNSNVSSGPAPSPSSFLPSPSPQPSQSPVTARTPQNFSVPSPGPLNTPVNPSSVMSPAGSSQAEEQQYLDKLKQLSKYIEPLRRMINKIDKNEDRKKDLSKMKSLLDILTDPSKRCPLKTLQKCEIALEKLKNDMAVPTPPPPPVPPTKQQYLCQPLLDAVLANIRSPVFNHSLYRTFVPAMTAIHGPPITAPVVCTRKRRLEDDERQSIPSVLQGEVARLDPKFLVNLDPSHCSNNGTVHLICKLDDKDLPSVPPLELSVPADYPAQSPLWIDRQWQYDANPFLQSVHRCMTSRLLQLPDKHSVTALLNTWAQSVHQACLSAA
UniProt P33992: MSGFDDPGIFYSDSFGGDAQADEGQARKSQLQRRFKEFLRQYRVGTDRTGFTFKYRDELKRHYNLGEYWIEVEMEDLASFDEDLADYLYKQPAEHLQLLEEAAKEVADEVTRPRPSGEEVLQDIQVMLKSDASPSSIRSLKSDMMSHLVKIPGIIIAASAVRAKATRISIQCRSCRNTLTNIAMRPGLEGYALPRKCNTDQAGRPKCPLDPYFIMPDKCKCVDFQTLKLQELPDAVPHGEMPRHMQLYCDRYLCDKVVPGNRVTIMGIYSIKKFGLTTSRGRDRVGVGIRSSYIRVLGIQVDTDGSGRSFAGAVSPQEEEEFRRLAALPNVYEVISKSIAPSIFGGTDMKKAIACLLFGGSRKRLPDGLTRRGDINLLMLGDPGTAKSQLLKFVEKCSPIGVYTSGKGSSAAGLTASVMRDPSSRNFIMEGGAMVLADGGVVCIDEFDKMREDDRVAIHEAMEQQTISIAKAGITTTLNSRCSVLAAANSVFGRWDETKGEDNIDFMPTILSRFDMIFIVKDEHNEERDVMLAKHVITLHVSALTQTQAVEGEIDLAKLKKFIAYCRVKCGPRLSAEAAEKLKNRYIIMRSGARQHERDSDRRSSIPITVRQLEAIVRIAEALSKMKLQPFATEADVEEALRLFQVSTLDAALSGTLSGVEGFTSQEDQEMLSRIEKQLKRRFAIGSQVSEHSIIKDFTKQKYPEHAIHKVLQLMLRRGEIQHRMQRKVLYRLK
UniProt Q9ULC4: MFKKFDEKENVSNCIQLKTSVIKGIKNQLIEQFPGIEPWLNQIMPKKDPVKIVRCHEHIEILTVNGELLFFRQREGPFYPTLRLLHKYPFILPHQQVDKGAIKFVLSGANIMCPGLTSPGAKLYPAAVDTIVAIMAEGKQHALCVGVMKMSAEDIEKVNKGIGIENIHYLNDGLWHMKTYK
UniProt P21741: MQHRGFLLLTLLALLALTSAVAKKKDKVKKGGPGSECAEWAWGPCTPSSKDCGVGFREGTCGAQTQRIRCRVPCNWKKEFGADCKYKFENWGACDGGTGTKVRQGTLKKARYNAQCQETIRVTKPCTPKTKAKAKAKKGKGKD
UniProt P61244, whole entry, looked up: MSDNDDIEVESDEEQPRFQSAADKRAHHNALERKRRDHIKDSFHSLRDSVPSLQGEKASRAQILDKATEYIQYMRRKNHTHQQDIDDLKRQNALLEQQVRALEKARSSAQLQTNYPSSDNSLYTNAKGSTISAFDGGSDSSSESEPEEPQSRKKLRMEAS
UniProt Q9HCE5: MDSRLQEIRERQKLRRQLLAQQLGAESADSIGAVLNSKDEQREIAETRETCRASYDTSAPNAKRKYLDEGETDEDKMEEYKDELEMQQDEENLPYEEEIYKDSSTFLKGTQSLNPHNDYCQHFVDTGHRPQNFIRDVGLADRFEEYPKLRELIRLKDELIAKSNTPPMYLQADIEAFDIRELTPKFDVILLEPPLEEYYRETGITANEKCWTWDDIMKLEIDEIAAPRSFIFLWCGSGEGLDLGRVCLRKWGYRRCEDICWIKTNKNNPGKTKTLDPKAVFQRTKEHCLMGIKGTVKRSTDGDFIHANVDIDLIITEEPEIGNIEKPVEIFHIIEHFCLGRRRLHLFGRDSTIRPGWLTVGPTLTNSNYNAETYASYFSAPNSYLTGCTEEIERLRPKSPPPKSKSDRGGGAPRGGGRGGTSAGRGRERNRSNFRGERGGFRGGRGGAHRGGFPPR
UniProt Q9Y316: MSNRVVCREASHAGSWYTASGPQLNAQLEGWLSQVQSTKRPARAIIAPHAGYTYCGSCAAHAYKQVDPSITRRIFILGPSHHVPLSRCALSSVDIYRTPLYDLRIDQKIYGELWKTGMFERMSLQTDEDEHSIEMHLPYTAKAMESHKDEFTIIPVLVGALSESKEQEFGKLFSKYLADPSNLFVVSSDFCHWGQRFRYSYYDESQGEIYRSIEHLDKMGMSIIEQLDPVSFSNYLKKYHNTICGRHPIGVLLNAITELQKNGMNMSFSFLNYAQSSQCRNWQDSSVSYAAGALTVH
UniProt Q8N6Q8: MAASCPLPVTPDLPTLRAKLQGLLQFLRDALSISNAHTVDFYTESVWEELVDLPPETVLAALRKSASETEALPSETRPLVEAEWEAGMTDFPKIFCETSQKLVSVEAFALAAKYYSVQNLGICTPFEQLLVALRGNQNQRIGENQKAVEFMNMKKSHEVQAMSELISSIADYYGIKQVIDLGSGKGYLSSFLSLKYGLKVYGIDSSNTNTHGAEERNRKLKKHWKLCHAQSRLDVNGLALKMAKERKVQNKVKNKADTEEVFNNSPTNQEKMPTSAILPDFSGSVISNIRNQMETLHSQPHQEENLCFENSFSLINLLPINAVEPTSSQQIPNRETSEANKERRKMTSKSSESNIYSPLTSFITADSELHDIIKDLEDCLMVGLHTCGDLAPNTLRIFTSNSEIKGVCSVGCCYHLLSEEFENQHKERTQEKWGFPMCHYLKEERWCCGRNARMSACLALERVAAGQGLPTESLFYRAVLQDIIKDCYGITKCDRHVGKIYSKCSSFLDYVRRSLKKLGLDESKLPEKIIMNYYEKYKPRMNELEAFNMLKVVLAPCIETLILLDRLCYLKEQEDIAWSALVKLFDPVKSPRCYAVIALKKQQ

What was measured:
Assay in all cases: log2 fold change, soluble protein after heating vs DMSO (PISA); higher = thermal stabilisation; K562 cells, 10 uM, 30 min; active = over 0.2 and 3.5 SD of the protein, either way, in both replicates (recomputed)
saracatinib = compound: CN1CCN(CCOc2cc(OC3CCOCC3)c3c(Nc4c(Cl)ccc5c4OCO5)ncnc3c2)CC1 [saracatinib]
Procedure, shortened: (§1)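 Thermal stability values are relative to control samples and come from duplicates. They are expressed as log2 fold changes. For measurement, K562 cells (2×10^6 cells/mL) received 10 μM compound for 30 min, and aliquots were heated for 3 min over 48°C-58°C, pooled, and extracted at 4°C in PBS with 0.5% NP-40. Soluble protein, the supernatant after 21,000xg for 90 min, was quantified by TMTpro 16plex LC-MS/MS with equalised channel sums.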

sotrastaurin = compound: CN1CCN(c2nc(C3=C(c4c[nH]c5ccccc45)C(=O)NC3=O)c3ccccc3n2)CC1 [sotrastaurin]
Procedure, shortened: as §1

alvocidib = compound: CN1CC[C@H](c2c(O)cc(O)c3c(=O)cc(-c4ccccc4Cl)oc23)[C@H](O)C1 [alvocidib]
Procedure, shortened: as §1

Tubastatin A = compound: CN1CCc2c(c3ccccc3n2Cc2ccc(C(=O)NO)cc2)C1 [Tubastatin A]
Procedure, shortened: as §1

[1] = compound: CNC(=O)C1=CC=CC=C1NC2=NC(=NC=C2Cl)NC3=C(C=C(C=C3)N4CCOCC4)OC
Procedure, shortened: as §1

defactinib = compound: CNC(=O)c1ccc(Nc2ncc(C(F)(F)F)c(NCc3nccnc3N(C)S(C)(=O)=O)n2)cc1 [defactinib]
Procedure, shortened: as §1

rucaparib = compound: CNCc1ccc(-c2[nH]c3cc(F)cc4c3c2CCNC4=O)cc1 [rucaparib]
Procedure, shortened: as §1

[2] = compound: CNc1nc(-c2ccc3c(N)n[nH]c3c2)cc(N2C[C@@H](C(=O)NC3CCCCC3)CC[C@H]2C)n1
Procedure, shortened: as §1

encorafenib = compound: COC(=O)N[C@@H](C)CNc1nccc(-c2cn(C(C)C)nc2-c2cc(Cl)cc(NS(C)(=O)=O)c2F)n1 [encorafenib]
Procedure, shortened: as §1

[3] = compound: COC(=O)[C@H](CCSC)NC(=O)C1=C(C=C(C=C1)NC[C@H](CS)N)C2=CC=CC=C2
Procedure, shortened: as §1

[4] = compound: COC1=CC=C(C=C1)CN2C=CC3=C2C=C(C=C3)C(=O)NO
Procedure, shortened: as §1

filanesib = compound: CON(C)C(=O)N1N=C(c2cc(F)ccc2F)S[C@@]1(CCCN)c1ccccc1 [filanesib]
Procedure, shortened: as §1

zotarolimus = compound: CO[C@H]1C[C@@H]2CC[C@@H](C)[C@@](O)(O2)C(=O)C(=O)N2CCCC[C@H]2C(=O)O[C@H]([C@H](C)C[C@@H]2CC[C@H](n3cnnn3)[C@H](OC)C2)CC(=O)[C@H](C)/C=C(\C)[C@@H](O)[C@@H](OC)C(=O)[C@H](C)C[C@H](C)/C=C/C=C/C=C/1C [zotarolimus]
Procedure, shortened: as §1

idasanutlin = compound: COc1cc(C(=O)O)ccc1NC(=O)[C@@H]1N[C@@H](CC(C)(C)C)[C@](C#N)(c2ccc(Cl)cc2F)[C@H]1c1cccc(Cl)c1F [idasanutlin]
Procedure, shortened: as §1

alisertib = compound: COc1cc(Nc2ncc3c(n2)-c2ccc(Cl)cc2C(c2c(F)cccc2OC)=NC3)ccc1C(=O)O [alisertib]
Procedure, shortened: as §1

[5] = compound: COc1cc2nc(-c3cc(F)ccc3O)nc(N[C@@H]3CNC[C@H]3C(C)(C)O)c2cc1OC
Procedure, shortened: as §1

gefitinib = compound: COc1cc2ncnc(Nc3ccc(F)c(Cl)c3)c2cc1OCCCN1CCOCC1 [gefitinib]
Procedure, shortened: as §1

[6] = compound: COc1cccc2cc(-c3nc([C@H]4CC[C@H](C(=O)O)CC4)n4ncnc(N)c34)[nH]c12
Procedure, shortened: as §1

lapatinib = compound: CS(=O)(=O)CCNCc1ccc(-c2ccc3ncnc(Nc4ccc(OCc5cccc(F)c5)c(Cl)c4)c3c2)o1 [lapatinib]
Procedure, shortened: as §1

pictilisib = compound: CS(=O)(=O)N1CCN(Cc2cc3nc(-c4cccc5[nH]ncc45)nc(N4CCOCC4)c3s2)CC1 [pictilisib]
Procedure, shortened: as §1

Measured: log2 fold change

MED14 (UniProt O60244)
inactive: saracatinib -0.104 | sotrastaurin -0.143 | alvocidib -0.123 | Tubastatin A -0.066 | [1] 0.104 | defactinib 0.06 | rucaparib 0.09 | [2] -0.015 | encorafenib 0.304 | [3] 0.071 | [4] 0.01 | filanesib 0.05 | zotarolimus 0.063 | idasanutlin 0.097 | alisertib -0.017 | [5] -0.066 | gefitinib 0.091 | [6] -0.06 | lapatinib 0.03 | pictilisib 0.036

MCAM (UniProt P43121)
inactive: saracatinib -0.003 | sotrastaurin 0.038 | alvocidib -0.033 | Tubastatin A 0.004 | [1] -0.009 | defactinib -0.023 | rucaparib -0.056 | [2] 0.032 | encorafenib 0 | [3] 0.005 | [4] 0.012 | filanesib 0.03 | zotarolimus -0.056 | idasanutlin -0.011 | alisertib -0.019 | [5] -0.003 | gefitinib 0.031 | [6] 0.074 | lapatinib 0.014 | pictilisib 0.143

MAT2A (UniProt P31153)
inactive: saracatinib 0.068 | sotrastaurin 0.047 | alvocidib 0.046 | Tubastatin A -0.02 | [1] -0.039 | defactinib 0.013 | rucaparib -0.003 | [2] -0.026 | encorafenib -0.032 | [3] 0.048 | [4] -0.024 | filanesib -0.028 | zotarolimus -0.034 | idasanutlin 0.02 | alisertib -0.057 | [5] 0.043 | gefitinib 0.023 | [6] 0.027 | lapatinib -0.037 | pictilisib -0.057

Random excerpt: 2 entries already listed
MED14 (UniProt O60244)
inactive: saracatinib -0.104 | sotrastaurin -0.143 | alvocidib -0.123 | Tubastatin A -0.066 | [1] 0.104 | defactinib 0.06 | rucaparib 0.09 | [2] -0.015 | encorafenib 0.304 | [3] 0.071 | [4] 0.01 | filanesib 0.05 | zotarolimus 0.063 | idasanutlin 0.097 | alisertib -0.017 | [5] -0.066 | gefitinib 0.091 | [6] -0.06 | lapatinib 0.03 | pictilisib 0.036

MCAM (UniProt P43121)
inactive: saracatinib -0.003 | sotrastaurin 0.038 | alvocidib -0.033 | Tubastatin A 0.004 | [1] -0.009 | defactinib -0.023 | rucaparib -0.056 | [2] 0.032 | encorafenib 0 | [3] 0.005 | [4] 0.012 | filanesib 0.03 | zotarolimus -0.056 | idasanutlin -0.011 | alisertib -0.019 | [5] -0.003 | gefitinib 0.031 | [6] 0.074 | lapatinib 0.014 | pictilisib 0.143

Going on with the list:

MFSD14B (UniProt Q5SR56)
inactive: saracatinib -0.015 | sotrastaurin 0.074 | alvocidib -0.007 | Tubastatin A 0.076 | [1] 0.036 | defactinib -0.17 | rucaparib 0.103 | [2] -0.131 | encorafenib -0.04 | [3] 0.11 | [4] 0.039 | filanesib 0.066 | zotarolimus -0.03 | idasanutlin 0.035 | alisertib -0.125 | [5] -0.013 | gefitinib -0.017 | [6] 0.214 | lapatinib 0.04

MEA1 (UniProt Q16626)
inactive: saracatinib 0.013 | sotrastaurin 0.115 | alvocidib -0.196 | Tubastatin A 0.182 | [1] -0.149 | defactinib -0.005 | rucaparib -0.053 | [2] -0.08 | encorafenib -0.01 | [3] -0.007 | [4] -0.061 | filanesib -0.047 | zotarolimus -0.074 | idasanutlin 0.121 | alisertib -0.056 | [5] 0.018 | gefitinib 0.007 | [6] 0.074 | lapatinib 0.006 | pictilisib -0.008

MED15 (UniProt Q96RN5)
inactive: saracatinib -0.025 | sotrastaurin -0.054 | alvocidib -0.21 | Tubastatin A 0.102 | [1] 0.035 | defactinib -0.021 | rucaparib 0.027 | [2] 0.014 | encorafenib -0.016 | [3] 0.05 | [4] -0.02 | filanesib 0.036 | zotarolimus -0.017 | idasanutlin 0.02 | alisertib 0.039 | [5] -0.005 | gefitinib -0.02 | [6] -0.064 | lapatinib 0.005 | pictilisib -0.053

MCM5 (UniProt P33992)
inactive: saracatinib 0.044 | sotrastaurin -0.016 | alvocidib -0.057 | Tubastatin A -0.032 | [1] -0.019 | defactinib -0.062 | rucaparib -0.084 | [2] -0.008 | encorafenib 0.019 | [3] -0.012 | [4] 0.039 | filanesib -0.054 | zotarolimus 0.016 | idasanutlin -0.055 | alisertib -0.053 | [5] -0.026 | gefitinib -0.004 | [6] 0.008 | lapatinib 0.042 | pictilisib -0.005

MCTS1 isoform 3 (UniProt Q9ULC4)
inactive: saracatinib 0.022 | sotrastaurin 0.016 | alvocidib -0.028 | Tubastatin A 0 | [1] 0.022 | defactinib -0.044 | rucaparib -0.026 | [2] -0.026 | encorafenib -0.027 | [3] 0.016 | [4] 0.004 | filanesib -0.026 | zotarolimus 0.007 | idasanutlin -0.008 | alisertib -0.046 | [5] -0.001 | gefitinib -0.006 | [6] 0.016 | lapatinib -0.013 | pictilisib 0.028

MDK (UniProt P21741)
inactive: saracatinib -0.005 | sotrastaurin 0.144 | alvocidib 0.026 | Tubastatin A -0.117 | [1] 0.059 | [2] -0.125 | filanesib 0.552 | zotarolimus -0.113 | idasanutlin 0.52 | alisertib -0.025 | [5] -0.022 | gefitinib 0.043 | [6] -0.156 | lapatinib 0.083 | pictilisib -0.045

MAX (UniProt P61244)
inactive: saracatinib 0.084 | sotrastaurin 0.068 | alvocidib 0.092 | Tubastatin A -0.092 | [1] -0.041 | defactinib 0 | rucaparib -0.027 | [2] -0.073 | encorafenib -0.043 | [3] 0.033 | [4] -0.024 | filanesib 0.02 | zotarolimus -0.036 | idasanutlin 0.03 | alisertib -0.078 | [5] 0.012 | gefitinib -0.002 | [6] 0.046 | lapatinib -0.004 | pictilisib 0.021

METTL14 (UniProt Q9HCE5)
inactive: saracatinib 0.06 | sotrastaurin 0.039 | alvocidib -0.008 | Tubastatin A -0.015 | [1] -0.007 | defactinib -0.02 | rucaparib -0.019 | [2] -0.04 | encorafenib 0.014 | [3] 0.005 | [4] -0.075 | filanesib -0.011 | zotarolimus 0.019 | idasanutlin -0.021 | alisertib -0.012 | [5] 0.016 | gefitinib 0.015 | [6] 0.036 | lapatinib 0.023 | pictilisib -0.008

MEMO1 (UniProt Q9Y316)
inactive: saracatinib 0.05 | sotrastaurin 0.01 | alvocidib -0.071 | Tubastatin A -0.017 | [1] -0.012 | defactinib -0.043 | rucaparib -0.029 | [2] 0.004 | encorafenib -0.006 | [3] 0.027 | [4] -0.005 | filanesib -0.086 | zotarolimus 0.055 | idasanutlin -0.104 | alisertib -0.113 | [5] 0.016 | gefitinib 0.035 | [6] 0.04 | lapatinib 0.046 | pictilisib -0.058

MEAF6 isoform 3 (UniProt Q9HAF1)
inactive: saracatinib 0 | sotrastaurin 0.251 | alvocidib 0.07 | Tubastatin A 0.049 | [1] -0.002 | defactinib 0.027 | rucaparib 0.089 | [2] -0.108 | encorafenib -0.017 | [3] 0.041 | [4] -0.037 | filanesib 0.051 | zotarolimus -0.034 | idasanutlin 0.061 | alisertib -0.073 | [5] 0.022 | gefitinib -0.051 | [6] -0.023 | lapatinib 0.022 | pictilisib -0.038

MDH1 isoform 3 (UniProt P40925)
inactive: saracatinib 0.028 | sotrastaurin 0 | alvocidib -0.009 | Tubastatin A -0.036 | [1] 0.116 | defactinib -0.02 | rucaparib -0.085 | [2] -0.016 | encorafenib -0.019 | [3] 0 | [4] 0.045 | filanesib -0.082 | zotarolimus 0.028 | idasanutlin -0.047 | alisertib -0.017 | [5] 0.001 | gefitinib -0.002 | [6] 0.03 | lapatinib -0.028 | pictilisib 0.039

METTL25 (UniProt Q8N6Q8)
inactive: saracatinib -0.158 | sotrastaurin 0.111 | alvocidib 0.142 | [1] -0.016 | defactinib 0.002 | [2] -0.125 | [3] 0.104 | [4] 0.063 | filanesib 0.032 | zotarolimus -0.108 | idasanutlin -0.107 | alisertib -0.091 | [5] 0.343 | gefitinib -0.01 | [6] -0.036 | lapatinib -0.179 | pictilisib 0.13
